From publication PMC10280940 come the findings set out here.

The chains behind the UniProt entries cited, without tags or fusion partners. Where a name states a change or a piece, a line headed by the entry shows the natural chain unless it says otherwise.
UniProt O00425: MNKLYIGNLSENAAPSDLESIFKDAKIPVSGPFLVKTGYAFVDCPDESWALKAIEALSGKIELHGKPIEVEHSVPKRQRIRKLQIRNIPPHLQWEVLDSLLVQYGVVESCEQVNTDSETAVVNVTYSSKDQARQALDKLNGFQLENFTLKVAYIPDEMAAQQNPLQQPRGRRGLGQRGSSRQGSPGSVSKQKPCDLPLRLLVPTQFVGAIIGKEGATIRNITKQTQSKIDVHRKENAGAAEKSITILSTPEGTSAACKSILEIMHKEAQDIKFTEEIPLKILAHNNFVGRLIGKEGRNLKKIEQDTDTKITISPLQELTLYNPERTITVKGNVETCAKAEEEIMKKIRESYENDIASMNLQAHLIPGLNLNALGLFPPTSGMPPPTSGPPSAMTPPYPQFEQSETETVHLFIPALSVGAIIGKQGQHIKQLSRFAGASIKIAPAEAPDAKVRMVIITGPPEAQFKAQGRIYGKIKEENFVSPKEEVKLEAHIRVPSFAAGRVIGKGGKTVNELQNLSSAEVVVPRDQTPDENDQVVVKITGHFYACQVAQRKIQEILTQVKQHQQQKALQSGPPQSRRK
UniProt Q14258: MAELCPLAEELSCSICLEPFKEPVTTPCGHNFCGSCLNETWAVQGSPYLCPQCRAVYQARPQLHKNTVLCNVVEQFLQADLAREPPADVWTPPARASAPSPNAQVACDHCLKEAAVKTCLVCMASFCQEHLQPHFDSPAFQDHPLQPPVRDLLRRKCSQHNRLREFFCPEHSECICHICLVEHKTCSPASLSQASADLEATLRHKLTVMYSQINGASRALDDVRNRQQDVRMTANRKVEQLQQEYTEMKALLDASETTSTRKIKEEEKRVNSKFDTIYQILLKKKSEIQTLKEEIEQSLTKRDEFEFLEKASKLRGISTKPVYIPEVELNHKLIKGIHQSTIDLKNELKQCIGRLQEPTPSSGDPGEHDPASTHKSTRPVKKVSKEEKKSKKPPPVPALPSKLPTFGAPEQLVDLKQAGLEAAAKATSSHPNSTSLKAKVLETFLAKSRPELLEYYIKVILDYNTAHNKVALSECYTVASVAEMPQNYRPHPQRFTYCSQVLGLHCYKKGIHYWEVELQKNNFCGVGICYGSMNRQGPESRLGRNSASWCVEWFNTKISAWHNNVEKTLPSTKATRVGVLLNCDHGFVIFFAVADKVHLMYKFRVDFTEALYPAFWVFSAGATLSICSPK

The target in test [1] is Full-length IGF2BP3, GFP-tagged (pEGFP-N1) (UniProt O00425). The test can be described thus: co-IP; lysates of SGC7901 and BGC823 cells transfected with GFP-tagged full-length IGF2BP3 or truncations; magnetic beads cross-linked with GFP antibody (Roche), overnight at 4 °C; TRIM25 detected by Western blot. A general note: A western blot detects proteins with antibodies after separation by electrophoresis.

The target in test [2] is HA-tagged TRIM25 (pCMV3-N-HA-TRIM25) (UniProt Q14258). Put plainly: co-IP; lysates of SGC7901 and BGC823 cells with HA-tagged TRIM25; magnetic beads cross-linked with HA antibody (Abmart) or IgG, overnight at 4 °C; IGF2BP3 detected by Western blot.
Test [3] has as its target Insulin like growth factor II mRNA binding protein 3 (IGF2BP3), endogenous (human (endogenous in SGC7901 and BGC823)) (UniProt O00425). Put plainly: co-IP; lysates of SGC7901 and BGC823 cells; magnetic beads cross-linked with IGF2BP3 antibody (Abcam) or IgG, overnight at 4 °C; TRIM25 detected by Western blot.

These are yes or no findings as the source states them, for the method shown. Binding seen in cells or lysates may run through a third protein. Some binding calls cover weakened binding; strength is not graded here.

Regarding “HA-tagged TRIM25 (pCMV3-N-HA-TRIM25) (from UniProt Q14258 1-630)”, in test [1], the binding result is on record as “binds”.

As to “Insulin like growth factor II mRNA binding protein 3 (IGF2BP3), endogenous (from UniProt O00425-1 1-579)”, the binding result in test [2] is “binds”.

For the substance “Tripartite motif-containing 25 (TRIM25), endogenous (from UniProt Q14258 1-630)”, in test [3], the binding result was “binds”.
